Results taken from article PMC11358041.
No constants are given. Whether binding was seen depends on the method and setting. Binding seen in cells or lysates may run through a third protein. These calls come from enrichment with a bait or labelling near it, and not all partners need be listed.

The chains behind the UniProt entries cited, without tags or fusion partners.
UniProt Q8K371: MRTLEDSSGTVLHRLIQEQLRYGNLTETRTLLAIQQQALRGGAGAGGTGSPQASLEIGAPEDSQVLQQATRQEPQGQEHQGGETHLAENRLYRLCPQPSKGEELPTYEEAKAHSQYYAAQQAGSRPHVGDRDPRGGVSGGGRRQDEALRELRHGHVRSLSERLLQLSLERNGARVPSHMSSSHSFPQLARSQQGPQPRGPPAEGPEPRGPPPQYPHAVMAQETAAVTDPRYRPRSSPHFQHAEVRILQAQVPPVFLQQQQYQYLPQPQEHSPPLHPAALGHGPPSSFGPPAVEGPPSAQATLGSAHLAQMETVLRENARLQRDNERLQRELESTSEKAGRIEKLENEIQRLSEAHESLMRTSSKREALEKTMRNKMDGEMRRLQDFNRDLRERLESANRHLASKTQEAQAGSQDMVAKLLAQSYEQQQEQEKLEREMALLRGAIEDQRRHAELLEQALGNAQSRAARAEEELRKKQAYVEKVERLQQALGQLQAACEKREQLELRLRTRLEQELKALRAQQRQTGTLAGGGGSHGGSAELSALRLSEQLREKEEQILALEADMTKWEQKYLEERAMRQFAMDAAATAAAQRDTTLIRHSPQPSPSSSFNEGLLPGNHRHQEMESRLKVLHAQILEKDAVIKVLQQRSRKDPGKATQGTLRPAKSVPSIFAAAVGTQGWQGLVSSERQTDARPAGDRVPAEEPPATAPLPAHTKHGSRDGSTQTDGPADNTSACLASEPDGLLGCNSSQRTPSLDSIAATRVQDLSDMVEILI
UniProt Q9QZQ1: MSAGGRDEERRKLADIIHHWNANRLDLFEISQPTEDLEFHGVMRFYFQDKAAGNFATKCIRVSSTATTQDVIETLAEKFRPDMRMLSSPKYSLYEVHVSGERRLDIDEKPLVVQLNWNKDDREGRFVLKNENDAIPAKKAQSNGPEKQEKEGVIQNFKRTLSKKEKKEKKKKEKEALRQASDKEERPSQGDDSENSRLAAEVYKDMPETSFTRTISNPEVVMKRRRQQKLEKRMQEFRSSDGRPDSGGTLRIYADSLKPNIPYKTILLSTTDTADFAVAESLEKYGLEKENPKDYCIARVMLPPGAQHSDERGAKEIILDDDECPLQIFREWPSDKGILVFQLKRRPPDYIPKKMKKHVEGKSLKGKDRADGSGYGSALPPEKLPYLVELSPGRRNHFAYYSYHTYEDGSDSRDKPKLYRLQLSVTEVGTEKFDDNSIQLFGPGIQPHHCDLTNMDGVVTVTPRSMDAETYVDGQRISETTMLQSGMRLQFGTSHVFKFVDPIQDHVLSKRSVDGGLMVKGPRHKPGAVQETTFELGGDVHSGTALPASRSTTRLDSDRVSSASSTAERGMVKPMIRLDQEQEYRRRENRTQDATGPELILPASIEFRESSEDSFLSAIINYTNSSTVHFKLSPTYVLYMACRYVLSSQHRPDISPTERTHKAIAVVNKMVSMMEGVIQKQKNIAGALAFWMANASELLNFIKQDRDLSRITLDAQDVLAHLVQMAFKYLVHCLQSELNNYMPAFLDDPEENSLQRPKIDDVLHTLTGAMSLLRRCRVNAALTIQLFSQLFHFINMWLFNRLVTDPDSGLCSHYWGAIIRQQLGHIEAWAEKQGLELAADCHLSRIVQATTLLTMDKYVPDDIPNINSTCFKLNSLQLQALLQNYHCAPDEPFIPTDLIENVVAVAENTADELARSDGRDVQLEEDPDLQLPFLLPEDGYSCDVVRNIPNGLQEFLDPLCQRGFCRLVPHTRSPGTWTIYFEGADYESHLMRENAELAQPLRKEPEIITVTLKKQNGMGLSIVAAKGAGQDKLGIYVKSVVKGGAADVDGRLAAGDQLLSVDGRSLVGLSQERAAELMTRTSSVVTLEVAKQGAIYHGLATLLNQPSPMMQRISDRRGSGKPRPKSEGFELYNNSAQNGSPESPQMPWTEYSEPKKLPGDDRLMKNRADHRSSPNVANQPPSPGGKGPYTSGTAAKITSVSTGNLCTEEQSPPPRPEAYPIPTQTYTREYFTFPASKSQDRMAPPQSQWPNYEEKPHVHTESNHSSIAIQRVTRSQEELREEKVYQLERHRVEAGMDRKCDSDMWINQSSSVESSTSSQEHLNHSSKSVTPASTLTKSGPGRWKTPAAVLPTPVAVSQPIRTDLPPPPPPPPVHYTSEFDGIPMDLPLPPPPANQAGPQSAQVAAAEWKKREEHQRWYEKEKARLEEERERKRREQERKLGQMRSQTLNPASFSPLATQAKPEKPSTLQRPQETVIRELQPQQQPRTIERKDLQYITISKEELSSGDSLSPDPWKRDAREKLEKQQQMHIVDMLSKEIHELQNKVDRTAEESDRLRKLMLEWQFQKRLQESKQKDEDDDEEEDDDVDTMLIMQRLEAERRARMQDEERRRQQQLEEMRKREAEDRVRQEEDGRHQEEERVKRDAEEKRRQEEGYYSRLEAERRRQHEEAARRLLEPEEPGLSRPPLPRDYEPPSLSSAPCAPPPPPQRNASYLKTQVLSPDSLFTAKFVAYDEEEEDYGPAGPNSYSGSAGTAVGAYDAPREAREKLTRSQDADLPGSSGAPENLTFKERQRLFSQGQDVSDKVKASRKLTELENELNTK
UniProt Q8VBX6: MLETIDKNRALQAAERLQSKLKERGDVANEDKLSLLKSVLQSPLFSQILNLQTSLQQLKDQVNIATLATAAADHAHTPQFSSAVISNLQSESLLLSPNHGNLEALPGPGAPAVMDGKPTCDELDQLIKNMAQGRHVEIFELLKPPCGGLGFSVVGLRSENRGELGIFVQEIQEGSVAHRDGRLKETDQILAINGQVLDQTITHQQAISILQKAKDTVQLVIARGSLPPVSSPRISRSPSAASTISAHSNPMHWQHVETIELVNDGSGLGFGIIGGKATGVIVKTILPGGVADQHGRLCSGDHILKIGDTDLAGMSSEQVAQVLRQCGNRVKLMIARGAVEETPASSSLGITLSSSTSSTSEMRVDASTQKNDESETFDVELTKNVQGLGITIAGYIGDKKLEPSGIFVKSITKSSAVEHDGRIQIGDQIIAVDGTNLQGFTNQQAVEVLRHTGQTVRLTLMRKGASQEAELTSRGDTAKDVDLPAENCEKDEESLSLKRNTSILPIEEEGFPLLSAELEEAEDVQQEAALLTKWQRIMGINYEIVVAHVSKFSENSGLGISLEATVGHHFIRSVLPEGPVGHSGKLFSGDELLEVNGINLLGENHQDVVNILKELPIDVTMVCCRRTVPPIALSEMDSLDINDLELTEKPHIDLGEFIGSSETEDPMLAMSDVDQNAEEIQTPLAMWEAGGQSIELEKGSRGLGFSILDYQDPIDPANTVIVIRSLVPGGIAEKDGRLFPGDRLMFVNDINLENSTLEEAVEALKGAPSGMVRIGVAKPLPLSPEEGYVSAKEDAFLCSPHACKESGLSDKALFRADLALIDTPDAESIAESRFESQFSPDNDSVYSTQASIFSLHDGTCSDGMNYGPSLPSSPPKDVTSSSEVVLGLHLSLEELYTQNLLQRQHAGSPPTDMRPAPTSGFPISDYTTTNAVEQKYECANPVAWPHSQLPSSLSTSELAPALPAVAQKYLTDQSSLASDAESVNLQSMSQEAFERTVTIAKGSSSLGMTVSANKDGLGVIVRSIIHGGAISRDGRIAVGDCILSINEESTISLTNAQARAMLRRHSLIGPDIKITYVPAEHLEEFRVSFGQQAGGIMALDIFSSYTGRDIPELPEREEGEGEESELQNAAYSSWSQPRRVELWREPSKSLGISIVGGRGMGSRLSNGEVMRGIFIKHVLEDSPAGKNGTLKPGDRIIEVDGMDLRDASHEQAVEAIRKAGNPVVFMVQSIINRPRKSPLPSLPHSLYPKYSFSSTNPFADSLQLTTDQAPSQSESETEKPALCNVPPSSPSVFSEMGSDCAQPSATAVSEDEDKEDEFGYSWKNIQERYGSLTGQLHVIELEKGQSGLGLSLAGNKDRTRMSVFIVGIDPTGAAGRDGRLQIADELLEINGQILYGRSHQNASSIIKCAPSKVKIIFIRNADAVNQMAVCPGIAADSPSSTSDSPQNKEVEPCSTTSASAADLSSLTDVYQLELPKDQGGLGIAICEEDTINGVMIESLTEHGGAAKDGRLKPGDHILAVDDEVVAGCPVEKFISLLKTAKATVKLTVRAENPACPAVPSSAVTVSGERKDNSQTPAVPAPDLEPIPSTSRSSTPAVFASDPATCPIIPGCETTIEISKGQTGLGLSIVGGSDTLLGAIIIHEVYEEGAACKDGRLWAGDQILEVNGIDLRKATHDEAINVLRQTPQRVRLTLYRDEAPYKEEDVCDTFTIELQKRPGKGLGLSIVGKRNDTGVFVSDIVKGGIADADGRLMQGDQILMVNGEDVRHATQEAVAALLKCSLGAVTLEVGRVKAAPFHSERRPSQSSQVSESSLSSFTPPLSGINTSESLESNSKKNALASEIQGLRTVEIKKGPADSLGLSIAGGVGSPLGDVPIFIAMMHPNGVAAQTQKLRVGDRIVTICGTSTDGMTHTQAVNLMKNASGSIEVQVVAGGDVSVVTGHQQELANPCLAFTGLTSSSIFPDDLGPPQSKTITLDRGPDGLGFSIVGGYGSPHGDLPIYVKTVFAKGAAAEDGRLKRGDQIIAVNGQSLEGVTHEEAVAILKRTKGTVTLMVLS
UniProt Q6RHR9: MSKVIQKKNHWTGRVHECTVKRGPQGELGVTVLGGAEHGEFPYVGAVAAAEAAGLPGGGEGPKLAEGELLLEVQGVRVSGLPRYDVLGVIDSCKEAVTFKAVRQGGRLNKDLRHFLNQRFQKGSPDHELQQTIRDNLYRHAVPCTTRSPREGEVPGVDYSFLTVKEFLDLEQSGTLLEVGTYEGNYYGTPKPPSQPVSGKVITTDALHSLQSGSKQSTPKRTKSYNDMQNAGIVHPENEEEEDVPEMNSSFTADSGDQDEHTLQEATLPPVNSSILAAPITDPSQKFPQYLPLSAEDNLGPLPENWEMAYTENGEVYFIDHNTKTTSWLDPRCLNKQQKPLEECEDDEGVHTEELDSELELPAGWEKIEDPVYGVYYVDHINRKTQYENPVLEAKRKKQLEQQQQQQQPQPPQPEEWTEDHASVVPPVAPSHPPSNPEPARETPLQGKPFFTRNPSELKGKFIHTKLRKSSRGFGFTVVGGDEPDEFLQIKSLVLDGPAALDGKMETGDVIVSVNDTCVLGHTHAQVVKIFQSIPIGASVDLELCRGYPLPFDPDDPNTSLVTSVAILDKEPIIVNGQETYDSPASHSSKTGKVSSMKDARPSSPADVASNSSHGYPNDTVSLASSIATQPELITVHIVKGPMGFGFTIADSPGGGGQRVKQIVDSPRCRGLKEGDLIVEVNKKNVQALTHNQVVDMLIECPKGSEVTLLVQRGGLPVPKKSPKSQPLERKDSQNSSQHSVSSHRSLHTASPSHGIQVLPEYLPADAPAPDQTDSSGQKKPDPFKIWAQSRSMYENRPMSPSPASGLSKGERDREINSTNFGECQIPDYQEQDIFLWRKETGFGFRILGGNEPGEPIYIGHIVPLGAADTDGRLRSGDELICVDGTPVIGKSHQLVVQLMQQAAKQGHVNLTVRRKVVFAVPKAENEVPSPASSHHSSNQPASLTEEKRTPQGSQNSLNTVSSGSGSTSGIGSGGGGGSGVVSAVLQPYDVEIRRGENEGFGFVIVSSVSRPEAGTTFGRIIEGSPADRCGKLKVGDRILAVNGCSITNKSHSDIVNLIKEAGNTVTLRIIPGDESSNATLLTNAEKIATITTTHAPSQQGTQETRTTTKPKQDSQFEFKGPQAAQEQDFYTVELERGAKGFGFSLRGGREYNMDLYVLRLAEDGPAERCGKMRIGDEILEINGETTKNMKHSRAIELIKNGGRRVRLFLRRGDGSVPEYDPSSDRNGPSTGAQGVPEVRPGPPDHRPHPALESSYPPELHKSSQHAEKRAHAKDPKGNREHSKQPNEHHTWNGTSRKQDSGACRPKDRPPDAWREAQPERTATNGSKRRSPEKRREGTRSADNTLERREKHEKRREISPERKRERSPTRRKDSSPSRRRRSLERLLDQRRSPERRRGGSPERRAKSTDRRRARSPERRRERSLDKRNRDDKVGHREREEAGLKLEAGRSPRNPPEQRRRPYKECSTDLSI

B1: VE-cadherin (mouse, endogenous) (protein, UniProt P55284 46-784)
chain: DWIWNQMHIDEEKNESLPHYVGKIKSNVNRQNAKYVLQGEFAGKIFGVDANTGNVLAYERLDREKVSEYFLTALIVDKNTNKNLEQPSSFTVKVHDINDNWPVFSHQVFNASVPEMSAIGTSVIRVTAVDADDPTVAGHATVLYQIVKGNEYFSIDNSGLIFTKIKNLDREKQAEYKIVVETQDALGLRGESGTATVMIRLEDINDNFPVFTQSTYTFSVPEDIRVGKPLGFLTVVDPDEPQNRMTKYSIMQGEYRDTFTIETDPKRNEGIIKPTKSLDYEVIQQYTFYIEATDPTIRYEYLSSTSGKNKAMVTINVLDVDEPPVFQRHFYHFKLPENQKKPLIGTVVAKDPDKAQRSIGYSIRKTSDRGQFFRITKQGNIYNEKELDRETYAWYNLTVEANELDSRGNPVGKESIVQVYIEVLDENDNPPEFAQPYEPKVCENAAQGKLVVQISATDKDVVPVNPKFKFALKNEDSNFTLINNHDNTANITVKYGQFNREHAKFHYLPVLISDNGVPSLTGTSTLTVGVCKCNEQGEFTFCEEMAAQAGVSIQALVAIFLCILTITVITLLIILRRRIRKQAHAHSKSALEIHEQLVTYDEEGGGEMDTTSYDVSVLNSVRGGSTKPLRSTMDARPAVYTQVQKPPRLAPGLHGGPREMATMIDVKKEEADNDGGGPPYDTLHIYGYEGAESIAESLSSLSTNSSDSDIDYDFLNDWGPRFKMLAELYGSDPQEELII
B2: AmotL1 (mouse, endogenous) (protein, UniProt Q9D4H4 1-968)
chain: MRRAKSRRGPCEPVLRAPPPICYSPSSPVQILEDPAYFYPDLQLYSGRHEASTLTVEASGGLRGKSVEDPLSSFHSPNFLRTPEVEMRGSEDVASGRVLQRLIQEQLRYGTPTENMNLLAIQHQATGSAGPAHATTNFSSTETLTQEDPQMVYQSARQEPQGQEHQGDNTVMEKQVRSTQPQQNNEELPTYEEAKAQSQFFRGQQQQQQQQQQQQQQQQQQGQGPLSHTYYMAGGTSQKSRTEGRPTVNRANSGQAHKDEALKELKQGHVRSLSERIMQLSLERNGAKQHLPSSGNGKSFKAGGEPSPAQPVCKALDPRGPPPEYPFKTKPMKSPVSKNQDHGLYYNDQHPGVLHEMVKPYPAPQPARTEVAVLRYQPPPEYGVTSRPCQLPFPSTVQQHSPMSSQTSSIGGTLHSVSLPLPLPISLAASQPLPASPNQQLGPDAFAIVERAQQMVEILTEENRVLHQELQGCYDNADKLHKFEKELQSISEAYESLVKSTTKRESLDKAMRTKLEGEIRRLHDFNRDLRDRLETANRQLSSREYDGHEDKAAESHYVSQNKEFLKEKEKLEMELAAVRTASEDHRRHIEILDQALSNAQARVIKLEEELREKQAYVEKVEKLQQALTQLQSACEKRGQMERRLRTWLERELDALRTQQKHGTGPPVSLPECNAPALMELVREKEERILALEADMTKWEQKYLEESTIRHFAMSAAAAATAERDTTISNHSRNGSYGESSLEAHIWPEEEEVVQANRRCQDMEYTIKNLHAKIIEKDAMIKVLQQRSRKDAGKTDSASLRPARSVPSIAAATGTHSRQTSLTSSQLTEEKKEEKTTWKGSIGFLLGKEHQGQASAPLLPTTPASALSLPASTTSASSTHAKTGSKDSSTQTDKSTELFWPSMASLPSRGRLSTAPSNSPILKHPAAKGAVEKQENSPGHGKASEHRGRVSNLLHKPEFPDGEMMEVLI
B3: p120 catenin (mouse, endogenous) (protein, UniProt P30999 1-938)
chain: MDDSEVESTASILASVKEQEAQFEKLTRALEEERRHVSAQLERVRVSPQDANSLMANGTLTRRHQNGRFVGDADLERQKFSDLKLNGPQDHNHLLYSTIPRMQEPGQIVETYTEEDPEGAMSVVSVETTDDGTTRRTETTVKKVVKTMTTRTVQPVPMGPDGLPVDASAVSNNYIQTLGRDFRKNGNGGPGPYVGQAGTATLPRNFHYPPDGYGRHYEDGYPGGSDNYGSLSRVTRIEERYRPSMEGYRAPSRQDVYGPQPQVRVGGSSVDLHRFHPEPYGLEDDQRSMGYDDLDYGMMSDYGTARRTGTPSDPRRRLRSYEDMIGEEVPPDQYYWAPLAQHERGSLASLDSLRKGMPPPSNWRQPELPEVIAMLGFRLDAVKSNAAAYLQHLCYRNDKVKTDVRKLKGIPILVGLLDHPKKEVHLGACGALKNISFGRDQDNKIAIKNCDGVPALVRLLRKARDMDLTEVITGTLWNLSSHDSIKMEIVDHALHALTDEVIIPHSGWEREPNEDCKPRHIEWESVLTNTAGCLRNVSSERSEARRKLRECDGLVDALIFIVQAEIGQKDSDSKLVENCVCLLRNLSYQVHREIPQAERYQEALPTVANSTGPHAASCFGAKKGKDEWFSRGKKPTEDPANDTVDFPKRTSPARGYELLFQPEVVRIYISLLKESKTPAILEASAGAIQNLCAGRWTYGRYIRSALRQEKALSAIAELLTSEHERVVKAASGALRNLAVDARNKELIGKHAIPNLVKNLPGGQQNSSWNFSEDTVVSILNTINEVIAENLEAAKKLRETQGIEKLVLINKSGNRSEKEVRAAALVLQTIWGYKELRKPLEKEGWKKSDFQVNLNNASRSQSSHSYDDSTLPLIDRNQKSDKKPDREEIPMSNMGSNTKSLDNNYSTLNERGDHNRTLDRSGDLGDMEPLKGAPLMQKI
B4: SUN2 (mouse, endogenous) (protein, UniProt Q8BJS4 1-731)
chain: MSRRSQRLTRYSQDDNDGGSSSSGASSVAGSQGTVFKDSPLRTLKRKSSNMKHLSPAPQLGPSSDSHTSYYSESVVRESYIGSPRAVSLARSALLDDHLHSEPYWSGDLRGRRRRGTGGSESSKANGLTAESKASEDFFGSSSGYSSEDDLAGYTDSDQHSSGSRLRSAASRAGSFVWTLVTFPGRLFGLLYWWIGTTWYRLTTAASLLDVFVLTRSRHFSLNLKSFLWFLLLLLLLTGLTYGAWHFYPLGLQTLQPAVVSWWAAKESRKQPEVWESRDASQHFQAEQRVLSRVHSLERRLEALAADFSSNWQKEAIRLERLELRQGAAGHGGGSSLSHEDALSLLEGLVSRREATLKEDLRRDTVAHIQEELATLRAEHHQDSEDLFKKIVQASQESEARVQQLKTEWKSMTQEAFQESSVKELGRLEAQLASLRQELAALTLKQNSVADEVGLLPQKIQAARADVESQFPDWIRQFLLGDRGARSGLLQRDEMHAQLQELENKILTKMAEMQGKSAREAAASLGQILQKEGIVGVTEEQVHRIVKQALQRYSEDRIGMVDYALESGGASVISTRCSETYETKTALLSLFGIPLWYHSQSPRVILQPDVHPGNCWAFQGPQGFAVVRLSARIRPTAVTLEHVPKALSPNSTISSAPKDFAIFGFDEDLQQEGTLLGTFAYDQDGEPIQTFYFQASKMATYQVVELRILTNWGHPEYTCIYRFRVHGEPAH
B5: LAP2α (mouse, endogenous) (protein, UniProt Q61033 1-693)
chain: MPEFLEDPSVLTKDKLKSELVANNVTLPAGEQRKDVYVQLYLQHLTARNRPPLAAGANSKGPPDFSSDEEREPTPVLGSGASVGRGRGAVGRKATKKTDKPRLEDKDDLDVTELSNEELLDQLVRYGVNPGPIVGTTRKLYEKKLLKLREQGTESRSSTPLPTVSSSAENTRQNGSNDSDRYSDNDEGKKKEHKKVKSARDCVPFSELASTPSGAFFQGISFPEISTRPPLGRTELQAAKKVQTTKRDPPRETCTDTALPGKGQTHKLAPGRSLFIPSESSYDRCVEKSSSPSSQREFAARLVSAAASPSLIRETTTTYSKDIVENICRGGKSRAQPLRAEEPGVSDQSVFSSEREVLQESERSQVISPPLAQAIRDYVNSLLVQGGVGSLPGTSDSVPTLDVENICKRLSQSSYQDSESLSPPRKVPRLSEKPARGGDSGSCVAFQNTPGSEHRSSFAKSVVSHSLTTLGVEVSKPPPQHDKIEASEPSFPLHESILKVVEEEWQQIDRQLPSVACRYPVSSIEAARILSVPKVDDEILGFISEATPRAATQASSTESCDKHLDLALCRSYEAAASALQIAAHTAFVAKSLQADISQAAQIINSDPSDAQQALRILNRTYDAASYLCDAAFDEVRMSACAMGSSTMGRRYLWLKDCKISPASKNKLTVAPFKGGTLFGGEVHKVIKKRGNKQ
B6: LAP2β (mouse, endogenous) (protein, UniProt Q61029 1-452)
chain: MPEFLEDPSVLTKDKLKSELVANNVTLPAGEQRKDVYVQLYLQHLTARNRPPLAAGANSKGPPDFSSDEEREPTPVLGSGASVGRGRGAVGRKATKKTDKPRLEDKDDLDVTELSNEELLDQLVRYGVNPGPIVGTTRKLYEKKLLKLREQGTESRSSTPLPTVSSSAENTRQNGSNDSDRYSDNDEDSKIELKLEKREPLKGRAKTPVTLKQRRTEHNQSYSQAGVTETEWTSGSSTGGPLQALTRESTRGSRRTPRKRVETSQHFRIDGAVISESTPIAETIKASSNESLVANRLTGNFKHASSILPITEFSDITRRTPKKPLTRAEVGEKTEERRVDRDILKEMFPYEASTPTGISASCRRPIKGAAGRPLELSDFRMEESFSSKYVPKYAPLADVKSEKTKKRRSVPMWIKMLLFALVAVFLFLVYQAMETNQGNPFTNFLQDTKISN

Tests used:
BirA-p100-AmotL2 (human) = target: T1, BirA-p100-AmotL2 (human) (UniProt Q9Y2J4); experiment: proximity labelling; BioID in MS1 cells stably expressing BirA-p100-AmotL2; biotin for 16 h, lysis in 8 M urea, streptavidin beads, MS; controls empty vector and BirA-p60-AmotL2
T1 sequence: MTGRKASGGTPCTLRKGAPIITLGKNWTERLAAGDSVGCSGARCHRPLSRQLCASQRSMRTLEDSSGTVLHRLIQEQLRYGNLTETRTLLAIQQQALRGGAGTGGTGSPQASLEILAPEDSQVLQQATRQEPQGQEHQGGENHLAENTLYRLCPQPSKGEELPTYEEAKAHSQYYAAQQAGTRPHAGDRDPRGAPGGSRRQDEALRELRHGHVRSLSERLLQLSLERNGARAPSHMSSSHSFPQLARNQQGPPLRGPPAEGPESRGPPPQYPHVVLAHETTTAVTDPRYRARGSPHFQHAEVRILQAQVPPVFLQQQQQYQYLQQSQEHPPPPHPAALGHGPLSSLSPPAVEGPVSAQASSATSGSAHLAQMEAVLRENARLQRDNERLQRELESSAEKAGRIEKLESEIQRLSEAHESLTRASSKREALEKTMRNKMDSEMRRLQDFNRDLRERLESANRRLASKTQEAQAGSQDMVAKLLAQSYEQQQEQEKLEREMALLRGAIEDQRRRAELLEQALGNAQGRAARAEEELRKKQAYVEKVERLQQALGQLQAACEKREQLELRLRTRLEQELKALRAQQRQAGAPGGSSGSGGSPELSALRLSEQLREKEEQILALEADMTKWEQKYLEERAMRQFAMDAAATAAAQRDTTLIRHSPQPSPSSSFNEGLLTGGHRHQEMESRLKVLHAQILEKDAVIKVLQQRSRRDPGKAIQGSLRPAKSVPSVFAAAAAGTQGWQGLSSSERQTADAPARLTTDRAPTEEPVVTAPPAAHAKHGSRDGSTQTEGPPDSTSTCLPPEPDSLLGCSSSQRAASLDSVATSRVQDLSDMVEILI

[1] = target: AmotL2 (mouse, endogenous) (mouse (endogenous in MS1 cells, lung and aorta)) (UniProt Q8K371); experiment: affinity purification with mass spectrometry; IP with AmotL2 antibodies from MS1 cell lysate against control IP; on-bead digestion, LC-MS/MS; three independent experiments

Row | Molecule | binding (BirA-p100-AmotL2 (human)) | binding [1]
1 | Afadin (mouse, endogenous) (from UniProt Q9QZQ1 1-1820) | binds | –
2 | β-catenin (mouse, endogenous) (from UniProt Q02248 1-781) | – | binds
3 | Mpdz (mouse, endogenous) (from UniProt Q8VBX6 1-2055) | binds | –
4 | Magi1 (mouse, endogenous) (from UniProt Q6RHR9 1-1471) | binds | –
5 | B1 | – | binds
6 | B2 | binds | –
7 | B3 | binds | binds
8 | B4 | – | binds
9 | B5 | – | binds
10 | B6 | – | binds
